PubChem BioAssay AID686938 | Drosophila RNAi Screening Center – 2013
Aim: 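Fly genes required for calcium entry once internal stores are emptied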 (primary screen). Cells: Drosophila S2R+ cells. Knock-down reagent: long dsRNA against Drosophila genes, about 0.25 µg dsRNA per well, roughly 10,000 cells. Duration: 5 days of knock-down before the calcium assay. Conditions: thapsigargin (SERCA pump blocker) to empty calcium stores; entry signal taken 4 min after adding it. Read-out: 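Duplicate raw fluo-4 intensities per well from a plate reader, at rest and four minutes after thapsigargin emptied calcium stores; entry-to-rest ratio filled for only some wells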. Direction: calcium entry signal: higher = stronger calcium signal after store depletion; resting calcium signal: higher = higher resting calcium signal. Units: calcium entry signal in fluorescence units; resting calcium signal in fluorescence units. Call rule: 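Called when the plate z-score of the entry-to-rest ratio, mean of duplicates, falls below −3; wells with low overall dye signal (Fmax z below −2) or more than five off-targets excluded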. Meaning of the calls: active = strongly reduced calcium entry; inactive = no strong reduction.
In all, the deposit lists about 23,000 reagents; this is a random part of those with a known target gene and a result. Over the whole deposit, 75 (0.33%) were called active. 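Raw plate signals without normalisation; calls rest on plate z-scores that were not deposited; ratio present for only 364 wells.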 The numbers tell different reagents against one gene apart. A plus sign joins genes that one reagent is predicted to hit. No sequences are given here. Not given: the dose of the treatment.

Gene | reagent | calcium entry signal, replicate 1 | calcium entry signal, replicate 2 | resting calcium signal, replicate 1 | resting calcium signal, replicate 2 | outcome
Gnf1 (Germ line transcription factor 1) | 1 | 2.56e7 | 3.57e7 | 1.69e7 | 2.20e7 | active
CG5823 | 1 | 3.29e7 | 3.54e7 | 1.63e7 | 1.61e7 | inactive
RpL7 (Ribosomal protein L7) | 1 | 1.17e7 | 1.12e7 | 7.84e6 | 8.15e6 | inactive
Targ2 (Terminal ADP-ribose protein glycohydrolase 2) | 1 | 2.11e7 | 8.05e7 | 1.14e7 | 3.50e7 | inactive
srp (serpent) | 1 | 2.52e7 | 3.66e7 | 1.18e7 | 1.65e7 | inactive
srp (serpent) | 2 | 3.15e7 | 7.36e7 | 1.89e7 | 7.75e7 | inactive
srp (serpent) | 3 | 3.55e7 | 3.60e7 | 1.77e7 | 1.54e7 | inactive
CG10598 | 1 | 3.55e7 | 3.12e7 | 1.77e7 | 1.50e7 | inactive
ATPsynO (ATP synthase, oligomycin sensitivity conferring protein) | 1 | 3.83e7 | 5.38e7 | 1.74e7 | 2.40e7 | inactive
Mical (Molecule interacting with CasL) | 1 | 2.26e7 | 2.63e7 | 1.17e7 | 1.47e7 | inactive
Mical (Molecule interacting with CasL) | 2 | 2.17e7 | 2.38e7 | 1.34e7 | 1.28e7 | inactive
Mical (Molecule interacting with CasL) | 3 | 2.17e7 | 2.37e7 | 1.18e7 | 1.32e7 | inactive
Mical (Molecule interacting with CasL) | 4 | 2.18e7 | 2.16e7 | 1.30e7 | 1.19e7 | inactive
AstA-R1 (Allatostatin A receptor 1) | 1 | 4.67e7 | 3.16e7 | 2.12e7 | 1.32e7 | inactive
AstA-R1 (Allatostatin A receptor 1) | 2 | 2.20e7 | 3.44e7 | 1.14e7 | 1.60e7 | inactive
Gr98a (Gustatory receptor 98a) | 1 | 6.07e7 | 3.16e7 | 2.96e7 | 1.67e7 | inactive
CG42568 + DnaJ-60 | 1 | 2.83e7 | 2.97e7 | 1.52e7 | 1.55e7 | inactive
CG42568 + DnaJ-60 | 2 | 3.76e7 | – | 2.03e7 | – | inactive
CG4972 | 1 | 2.98e7 | 4.04e7 | 1.44e7 | 1.74e7 | inactive
AcCoAS (Acetyl Coenzyme A synthase) | 1 | 3.60e7 | 5.31e7 | 1.95e7 | 2.93e7 | inactive
AcCoAS (Acetyl Coenzyme A synthase) | 2 | 3.94e7 | 4.68e7 | 2.04e7 | 3.38e7 | inactive
AcCoAS (Acetyl Coenzyme A synthase) | 3 | 2.24e7 | 4.19e7 | 1.20e7 | 2.04e7 | inactive
CG43736 | 1 | 3.23e7 | 3.64e7 | 1.61e7 | 1.60e7 | inactive
CG43736 | 2 | 3.55e7 | 3.52e7 | 1.74e7 | 1.60e7 | inactive
Ptpmeg (Protein tyrosine phosphatase Meg) | 1 | 4.71e7 | 3.77e7 | 2.14e7 | 1.93e7 | inactive
CG15047 | 1 | 4.05e7 | 3.91e7 | 2.02e7 | 1.74e7 | inactive
CG15047 | 2 | 3.73e7 | 3.07e7 | 2.16e7 | 1.52e7 | inactive
kek3 (kekkon 3) | 1 | 4.13e7 | 4.70e7 | 1.97e7 | 2.62e7 | inactive
kek3 (kekkon 3) | 2 | 2.74e7 | 4.70e7 | 1.50e7 | 2.13e7 | inactive
Golgin245 (Golgin-245) | 1 | 4.27e7 | – | 2.20e7 | – | inactive
Golgin245 (Golgin-245) | 2 | 2.14e7 | 3.18e7 | 1.10e7 | 1.74e7 | inactive
ct (cut) | 1 | 2.07e7 | 2.54e7 | 1.18e7 | 1.46e7 | inactive
CG14712 | 1 | 2.93e7 | 3.53e7 | 1.46e7 | 1.77e7 | inactive
CG10116 | 1 | 2.42e7 | 3.31e7 | 1.17e7 | 2.35e7 | inactive
FMRFa (FMRFamide) | 1 | 2.99e7 | 2.89e7 | 1.40e7 | 1.41e7 | inactive
CG13872 | 1 | 5.89e7 | 5.87e7 | 2.60e7 | 2.72e7 | inactive
Hsp70Bb + Hsp70Ba + Hsp70Bc + 1 more | 1 | 3.77e7 | 4.21e7 | 1.97e7 | 1.90e7 | inactive
Hsp70Bb + Hsp70Ba + Hsp70Bc + 1 more | 2 | 4.05e7 | 3.95e7 | 2.12e7 | 1.80e7 | inactive
BuGZ (Bub3 interacting GLEBS and Zinc finger domain protein) | 1 | 3.33e7 | – | 1.81e7 | – | inactive
BuGZ (Bub3 interacting GLEBS and Zinc finger domain protein) | 2 | 3.47e7 | 2.29e7 | 1.69e7 | 1.09e7 | inactive

4 entries from above, arranged by “resting calcium signal, replicate 2”, high to low:
Gene | reagent | calcium entry signal, replicate 1 | calcium entry signal, replicate 2 | resting calcium signal, replicate 1 | resting calcium signal, replicate 2 | outcome
AstA-R1 (Allatostatin A receptor 1) | 2 | 2.20e7 | 3.44e7 | 1.14e7 | 1.60e7 | inactive
Mical (Molecule interacting with CasL) | 3 | 2.17e7 | 2.37e7 | 1.18e7 | 1.32e7 | inactive
AstA-R1 (Allatostatin A receptor 1) | 1 | 4.67e7 | 3.16e7 | 2.12e7 | 1.32e7 | inactive
Mical (Molecule interacting with CasL) | 4 | 2.18e7 | 2.16e7 | 1.30e7 | 1.19e7 | inactive
